Assay results: patent US20220372125A1 (ASLAN PHARMACEUTICALS PTE, published 2022)
These are yes or no findings as the source states them, for the method shown. Some binding calls cover weakened binding; strength is not graded here. Where a sequence is shown, tags or fusion partners need not be part of it.

Assays:
[1] = biological target: T1, Mammalian expressed extracellular human RON protein (Gly25 to Thr957) with His-tag (human) (UniProt Q04912); test: ELISA, coated RON ECD
T1 sequence: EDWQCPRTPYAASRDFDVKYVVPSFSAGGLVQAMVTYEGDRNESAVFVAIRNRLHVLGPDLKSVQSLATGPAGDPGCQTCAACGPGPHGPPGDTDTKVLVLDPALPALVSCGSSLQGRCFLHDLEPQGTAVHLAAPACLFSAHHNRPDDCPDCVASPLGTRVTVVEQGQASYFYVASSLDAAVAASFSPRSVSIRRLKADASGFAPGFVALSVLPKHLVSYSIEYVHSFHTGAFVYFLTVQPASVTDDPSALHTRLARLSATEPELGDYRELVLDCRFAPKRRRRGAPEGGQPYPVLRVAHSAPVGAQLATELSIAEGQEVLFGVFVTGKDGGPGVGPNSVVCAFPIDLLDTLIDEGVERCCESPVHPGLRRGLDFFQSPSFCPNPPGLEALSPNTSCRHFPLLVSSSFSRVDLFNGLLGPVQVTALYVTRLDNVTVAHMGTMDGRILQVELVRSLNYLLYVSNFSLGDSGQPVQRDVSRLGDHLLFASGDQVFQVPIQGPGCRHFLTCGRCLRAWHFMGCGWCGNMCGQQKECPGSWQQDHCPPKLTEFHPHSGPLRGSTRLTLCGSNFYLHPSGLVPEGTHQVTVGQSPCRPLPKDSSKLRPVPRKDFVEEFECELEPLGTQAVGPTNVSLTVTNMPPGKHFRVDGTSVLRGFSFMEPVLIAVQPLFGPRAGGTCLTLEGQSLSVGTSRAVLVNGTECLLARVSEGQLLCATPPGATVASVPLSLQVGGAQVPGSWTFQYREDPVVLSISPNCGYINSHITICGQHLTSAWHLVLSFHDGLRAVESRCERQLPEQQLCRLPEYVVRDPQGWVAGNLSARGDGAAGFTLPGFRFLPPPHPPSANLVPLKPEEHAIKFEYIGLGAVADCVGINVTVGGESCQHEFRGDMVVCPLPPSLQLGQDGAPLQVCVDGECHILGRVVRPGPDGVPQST

[2] = biological target: T1, Mammalian expressed extracellular human RON protein (Gly25 to Thr957) with His-tag (human); test: ELISA, coated His-tagged RON ECD
[3] = biological target: T1, Mammalian expressed extracellular human RON protein (Gly25 to Thr957) with His-tag (human); test: ELISA, plate coated with His-tagged RON ECD, absorbance at 650 nm
[4] = biological target: T1, Mammalian expressed extracellular human RON protein (Gly25 to Thr957) with His-tag (human); test: KinExA titration, antibody titrated into fixed RON ECD concentrations of 400 nM and 40 nM
[5] = biological target: T1, Mammalian expressed extracellular human RON protein (Gly25 to Thr957) with His-tag (human); test: KinExA, fixed antigen format
[6] = biological target: T1, Mammalian expressed extracellular human RON protein (Gly25 to Thr957) with His-tag (human); test: KinExA titration, antibody titrated into fixed RON ECD concentrations of 10 nM and 1 nM [continued]
[7] = biological target: T1, Mammalian expressed extracellular human RON protein (Gly25 to Thr957) with His-tag (human); test: KinExA titration, antibody titrated into a fixed RON ECD concentration of 100 nM [continued]
[8] = biological target: T1, Mammalian expressed extracellular human RON protein (Gly25 to Thr957) with His-tag (human); test: KinExA titration, antibody titrated into fixed RON ECD concentrations of 50 nM and 5 nM [continued]
[9] = biological target: T1, Mammalian expressed extracellular human RON protein (Gly25 to Thr957) with His-tag (human); test: SPR, preliminary

Measured: binding

B1: 3F6 (antibody, V domains shown)
VH: EVKLEESGPGLVKPSQSLSLTCSVTGYSITSGYYWNWIRQFPGNKLEWMGFMSYDGSNNYNPSLKNRISITRDTSKNQFFLKLNSVTSEDTATYYCSRALAYYGNFDYWGQGTTLTVSS
VL: DIVLTQTPSSLSASLGDRVTISCSASQDISNYLNWYQQKPDGIVKLLIYYTSSLHSGVPSRFSGSGSGTDFSLTISNLEPEDIATYYCQQYNKLPWTFGGGTKLEIK
notes: Mouse monoclonal antibody from a hybridoma; kappa light chain; also called anti-RON antibody 3F6
binds: [1] | [2] | [3] | [4]

B2: 3F8 (antibody, V domains shown)
VH: EVKLQESGGGLVQPGRSLKLSCVASGFTFSSFWMHWVRQSPEKGLEWVAEIRLKSNNYATHYAESVKGRFTISRDDSKSSVHLQMNNLRTEDTGIYYCIPPYYYTVDYWGQGTSVTVSS
VL: DIVLTQTPKVMSTSVGDRVSVTCKASQNVNTNVAWYQQKPGQSPKALIYSASSRYSGVPDRFTGSGSGTDFTLTISNVQSEDLADYFCQQYNTYPLTFAAGTKLELK
notes: Mouse monoclonal antibody from a hybridoma; kappa light chain; also called Antibody 3F8; anti-RON antibody 3F8
binds: [1] | [5] | [2] | [3] | [6]

B3: 6A9 (antibody, V domains shown)
VH: EVKLEESGPGLLKPSQSLSLTCTVTGSSITSDYAWNWIRQFPGNKLEWMGYIGYSVGTSHNPSLKGRISITRDTSKNQFFLHLNSVTTEDTAIYYCARRPLYFYYAMDFWGQGTSVTVSS
VL: DIVLTQSPSSLSASLGDRVTITCRASQDISKYLNWYQQKPDGTVKLLIYYTSTLHSGVPSRFSGSGSGTDFSLTITNLEQEDIATYFCQQGNTLPRTFGGGTKLEIK
notes: Mouse monoclonal antibody from a hybridoma; kappa light chain; also called Antibody 6A9; anti-RON antibody 6A9
binds: [1] | [2] | [3] | [7]

B4: 9F2 (antibody, V domains shown)
VH: QVKLQQSGPGLVAPSQSLSITCTVSGFSLTSYGVHWVRQPPGKGLEWLGVIWAGGTTNYNSALMSRLSISKDNSKSQVFLKMNSLQTDDTAMYYCASYDYDGYFDVWGAGTTVTVSS
VL: DIVLTQTTAIMSASPGEKVTMTCSASSSVSYIHWYQQKSSTSPKLWIYDTSKLASGVPGRFSGSGSGNSYSLTISSMEAEDVATYYCFQGNKYPLTFGAGTKLELK
notes: Mouse monoclonal antibody from a hybridoma; kappa light chain; also called Antibody 9F2; anti-RON antibody 9F2
binds: [1] | [2] | [3] | [8]

B5: 9F6 (antibody, V domains shown)
VH: QVKLEESGPELVKTGASVKISCKASGYSFTGYYIHWVKQSHGQSLEWIGYISCYNGATRYNQKFKGKAAFTVDTSSSTAYLQFNSLTSEDSAIYYCARGGTTATPFDYWGQGTTLTVSS
VL: DIVLTQTPSSLSASLGERVSLTCRASQDIGSNLNWLQQEPDGTIKRLIYATSSLDPGVPKRFSGSRSGSDYSLTISSLESEDFVDYYCLQYISSPFTFGSGTKLEIK
binds: [9] | [1] | [2] | [3]
